Data reported in the supplement of paper PMC10689618.
The list shows a part of the results. Single values are uncertain, as repeats are few or missing.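 Labelled rat cortical synaptosomes were engulfed by primary human fetal astrocytes. Engulfment equaled a red/green ratio, corrected for calcein live-cell signal and normalized to the plate median. Compounds were toxic when calcein dropped over 30%, and reduced phagocytosis when below 70% of the median above 5 µM.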

Columns and labels:
[1] = tested on: Human fetal astrocytes; assay: loss of total cells relative to no-compound high-control median (toxicity); higher = more toxic (fewer cells); settings: 24 h
[2] = tested on: Human fetal astrocytes; assay: synaptosome phagocytosis (pHrodo/calcein intensity ratio) relative to plate median of data wells; higher = more phagocytosis; settings: 24 h

SMILES	loss of total cells ([1]; 1.39 µM) [%]	loss of total cells ([1]; 2.78 µM) [%]	loss of total cells ([1]; 5.56 µM) [%]	loss of total cells ([1]; 11.11 µM) [%]	loss of total cells ([1]; 22.22 µM) [%]	synaptosome phagocytosis ([2]; 1.39 µM) [%]	synaptosome phagocytosis ([2]; 2.78 µM) [%]	synaptosome phagocytosis ([2]; 5.56 µM) [%]	synaptosome phagocytosis ([2]; 11.11 µM) [%]	synaptosome phagocytosis ([2]; 22.22 µM) [%]
CCOC(=O)[N-]c1c[n+](N2CCOCC2)no1 [Molsidomine]	2.1	-9.2	-6.3	-9.5	-42.2	102	97.8	97.3	86.6	83.1
COc1ccc(/C=C/C(=O)Nc2ccccc2C(=O)O)cc1OC [Tranilast]	-32.3	27	1.9	42.3	11.5	91.8	140	87.3	135	68.2
C[C@@H]1CC[C@@]2(OC1)O[C@H]1C[C@H]3[C@@H]4CC[C@H]5C[C@@H](O)CC[C@]5(C)[C@H]4C[C@@H](O)[C@]3(C)[C@H]1[C@@H]2C	-19.9	10	-21.4	-2.6	-14.4	123	101	101	98.6	98.5
COc1cc(-c2coc3cc(O[C@@H]4O[C@H](CO)[C@@H](O)[C@H](O)[C@H]4O)c(OC)c(O)c3c2=O)cc(O)c1OC	36.6	28.6	-16	49	18.1	136	127	104	120	137
Oc1c(Cl)cc(Cl)c(Cl)c1Cc1c(O)c(Cl)cc(Cl)c1Cl	11.6	1	-2.1	49.9	54.4	88.8	84.3	43.7	6.6	0
OCCOCCN1CCN(C(c2ccccc2)c2ccc(Cl)cc2)CC1 (stereo not given)	16.3	-9.2	-4.9	17	-5.2	92.9	99.3	109	69.3	45.5
CCC[C@@H]1C[C@@H](C(=O)N[C@@H]([C@H]2O[C@H](SC)[C@H](O)[C@@H](O)[C@H]2O)[C@H](C)Cl)N(C)C1	7.4	-29.5	-10.5	-22.2	-5.2	80.2	75.2	125	102	120
COc1cc(O)ccc1C(C)=O	-32	-11.2	2.9	4.1	-11.1	83.6	89.2	88	100	97.5
COc1cc(/C=C/C(=O)O)cc(OC)c1OC	-35.1	2	-16	0.6	1.1	73.8	136	79.9	112	130
NCCCC(=O)O	17	15.5	8.7	0.4	2.3	89	97.2	50.3	93.1	58.4
CCc1nc(N)nc(N)c1-c1ccc(Cl)cc1	13.4	-5.1	-12.5	2.6	-0.9	120	118	110	98.3	114
COC(=O)C(O)c1ccccc1 (stereo not given)	-15.6	13.3	28.2	38.7	16.7	109	115	139	124	158
COc1cccc2c1CCC1=CC(=O)CC[C@@]12C	-17	4.7	32.1	1.9	10	90.1	116	146	102	141
CC1(C)S[C@@H]2[C@H](NC(=O)COc3ccccc3)C(=O)N2[C@H]1C(=O)O	9.8	-23.4	-11.1	-6.6	-10.6	92.1	146	145	126	107
CN(C)c1ccc2nc3ccc(=[N+](C)C)cc-3sc2c1	26.6	-13.5	12.4	14.8	14	144	83.8	103	30.8	39.4
O=c1cc(-c2ccccc2)oc2cc(O)c(O)cc12	-5.7	-3.2	11	8.8	27.4	76.7	114	103	121	133
O=c1oc2c(O)c(O)cc3c(=O)oc4c(O)c(O)cc1c4c23	7.6	4.7	26.8	7.9	5.3	115	131	96.3	113	152
CN(C)CC/C=C1/c2ccccc2Sc2ccc(Cl)cc21	-37.1	25.4	15.5	47.5	55.1	87.8	111	86.9	48.8	22.7
CC(=O)O[C@H]1CC[C@@]2(C)C(=CC=C3[C@@H]4CC[C@H]([C@H](C)/C=C/[C@H](C)C(C)C)[C@@]4(C)CC[C@@H]32)C1	-18.5	0	-5.3	35.5	-7	97.3	102	122	120	68.3
C=C1c2cccc(O)c2C(O)=C2C(=O)[C@]3(O)C(O)=C(C(N)=O)C(=O)[C@@H](N(C)C)[C@@H]3[C@@H](O)[C@H]12	-22.4	-16.2	3.3	-23.4	19.3	123	96.9	102	82.8	104

Given in markdown: 2 of the compounds above.

| SMILES | loss of total cells ([1]; 1.39 µM) [%] | loss of total cells ([1]; 2.78 µM) [%] | loss of total cells ([1]; 5.56 µM) [%] | loss of total cells ([1]; 11.11 µM) [%] | loss of total cells ([1]; 22.22 µM) [%] | synaptosome phagocytosis ([2]; 1.39 µM) [%] | synaptosome phagocytosis ([2]; 2.78 µM) [%] | synaptosome phagocytosis ([2]; 5.56 µM) [%] | synaptosome phagocytosis ([2]; 11.11 µM) [%] | synaptosome phagocytosis ([2]; 22.22 µM) [%] |
| --- | --- | --- | --- | --- | --- | --- | --- | --- | --- | --- |
| COc1ccc(/C=C/C(=O)Nc2ccccc2C(=O)O)cc1OC [Tranilast] | -32.3 | 27 | 1.9 | 42.3 | 11.5 | 91.8 | 140 | 87.3 | 135 | 68.2 |
| CCc1nc(N)nc(N)c1-c1ccc(Cl)cc1 | 13.4 | -5.1 | -12.5 | 2.6 | -0.9 | 120 | 118 | 110 | 98.3 | 114 |
